PubChem BioAssay (NCATS)
This is one part of the list. Shown are side measurements of this screen, not its main read-out; they come without a call. Most of these compounds were active or inconclusive in the main read-out, so they are no random draw. Words in brackets tell the shape of the fitted curve; partial curves, single points and poor fits give uncertain potencies.

Test: qHTS Assay for Inhibitors of PDE-IV (AID 607)
Conditions: HEK293 ACTOne CNG channel cells, membrane potential fluorescence; measured here: parental cell counter-screen
Method in brief: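 Live HEK293 cells with a modified cyclic nucleotide-gated (CNG) channel report intracellular cAMP via membrane-potential dye fluorescence (ex 535/em 590 nm). Endogenous PDE-IV was targeted. Compounds were tested at up to 22.9 uM final; RO 20-1724 100 uM served as control.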

| SMILES | AC50 |
| --- | --- |
| C[C@@H]1O[C@H](O[C@H]2C[C@@H](O)[C@]3(CO)[C@H]4[C@H](O)C[C@]5(C)[C@@H](C6=CC(=O)OC6)CC[C@@]5(O)[C@H]4CC[C@]3(O)C2)[C@@H](O)[C@H](O)[C@H]1O | 2.51 µM [rising, full curve, poor fit] |
| CC(=O)O[C@H]1C[C@@H](O[C@@H]2[C@H](C)O[C@H](O[C@@H]3[C@H](C)O[C@H](O[C@@H]4CC[C@@]5(C)[C@@H](CC[C@]6(C)[C@]5(C)C[C@H](O)[C@]5(C)[C@@H](C7=CC(=O)OC7)CC[C@@]56O)C4)C[C@@H]3O)C[C@@H]2O)O[C@@H](C)[C@H]1O[C@H]1O[C@@H](CO)[C@@H](O)[C@@H](O)[C@@H]1O | 6.31 µM [rising, partial curve, poor fit] |
| Ic1ccccc1CN[C@@H]1C2CCN(CC2)[C@H]1C(c1ccccc1)c1ccccc1 | 15.8 µM [rising, partial curve] |
| Cc1cc(C)cc(C(=O)OC2C[C@H]3CC[C@@H](C2)N3C)c1 (some centres not stated) | 12.6 µM [rising, partial curve] |
| COc1cc2c(c(OC)c1OC)-c1ccc(O)c(=O)cc1[C@@H](NC(C)=O)CC2 | 15.8 µM [rising, single point] |
| CC(C)CN1CCC2(CC1)CCN(C(=O)Oc1ccccc1)CC2 | 3.98 µM [rising, single point] |
| O=P(c1ccccc1)(c1ccccc1)N1CC2(CC2)CC(O)(c2ccccc2)C1 (configuration not stated) | 6.31 µM [rising, partial curve] |
